No constants are given. Whether binding was seen depends on the method and setting. For part of these data: Binding seen in cells or lysates may run through a third protein. Some binding calls cover weakened binding; strength is not graded here. Where a sequence is shown, tags or fusion partners need not be part of it.
Experiments:
[1] = molecular target: T1, AU1-TbDHSc (T. brucei deoxyhypusine synthase, catalytic subunit, N-terminally AU1-tagged) (T. brucei) (UniProt Q38BX0); assay: co-IP; soluble lysate (50 ug protein, 80 mM NaCl, 10 mM Tris pH 7.5) of BSF T. brucei co-expressing AU1-TbDHSc and FLAG-TbDHSp; anti-AU1 or anti-FLAG M2 antibody 12 h at 4 °C, Dynabeads protein A; Western blot with anti-AU1 and anti-FLAG
T1 sequence: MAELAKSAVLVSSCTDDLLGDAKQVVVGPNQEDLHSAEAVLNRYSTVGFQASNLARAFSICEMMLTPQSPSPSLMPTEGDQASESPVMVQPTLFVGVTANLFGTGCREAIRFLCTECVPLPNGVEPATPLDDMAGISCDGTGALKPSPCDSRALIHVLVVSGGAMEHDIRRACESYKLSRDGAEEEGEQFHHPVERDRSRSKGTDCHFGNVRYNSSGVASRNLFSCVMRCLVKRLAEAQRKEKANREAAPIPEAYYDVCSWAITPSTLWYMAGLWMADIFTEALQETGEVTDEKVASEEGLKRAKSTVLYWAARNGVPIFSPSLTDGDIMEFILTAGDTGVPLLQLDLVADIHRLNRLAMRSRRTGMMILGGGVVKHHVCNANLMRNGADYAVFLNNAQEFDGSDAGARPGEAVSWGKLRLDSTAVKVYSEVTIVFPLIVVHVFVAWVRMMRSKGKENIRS

[2] = molecular target: T2, FLAG-TbDHSp (T. brucei deoxyhypusine synthase prozyme (activating) subunit, N-terminally FLAG-tagged) (T. brucei) (UniProt Q4GZD1); assay: as above
T2 sequence: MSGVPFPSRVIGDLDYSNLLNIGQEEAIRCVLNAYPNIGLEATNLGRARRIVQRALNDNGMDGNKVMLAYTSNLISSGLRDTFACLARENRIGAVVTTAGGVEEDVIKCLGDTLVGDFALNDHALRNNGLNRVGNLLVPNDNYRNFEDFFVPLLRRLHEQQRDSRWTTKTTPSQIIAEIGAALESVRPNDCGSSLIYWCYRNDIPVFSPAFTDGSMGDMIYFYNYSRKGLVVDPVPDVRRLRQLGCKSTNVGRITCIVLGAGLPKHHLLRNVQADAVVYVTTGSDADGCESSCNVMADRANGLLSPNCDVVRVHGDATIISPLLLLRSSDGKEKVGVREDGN

[3] = molecular target: T3, TbDHSc (T. brucei deoxyhypusine synthase, catalytic subunit), recombinant, expressed as His6-SUMO-TbDHSc (T. brucei) (UniProt Q38BX0); assay: SEC; tagless TbDHSp co-expressed with His6-SUMO-TbDHSc in E. coli; co-purified by Ni2+-affinity, SUMO tag removed with Ulp1, then Superdex 200 Prep Grade in 50 mM Tris-HCl pH 7.5, 200 mM NaCl, 1 mM DTT; peak fraction analysed by SDS-PAGE; both purified
T3 sequence: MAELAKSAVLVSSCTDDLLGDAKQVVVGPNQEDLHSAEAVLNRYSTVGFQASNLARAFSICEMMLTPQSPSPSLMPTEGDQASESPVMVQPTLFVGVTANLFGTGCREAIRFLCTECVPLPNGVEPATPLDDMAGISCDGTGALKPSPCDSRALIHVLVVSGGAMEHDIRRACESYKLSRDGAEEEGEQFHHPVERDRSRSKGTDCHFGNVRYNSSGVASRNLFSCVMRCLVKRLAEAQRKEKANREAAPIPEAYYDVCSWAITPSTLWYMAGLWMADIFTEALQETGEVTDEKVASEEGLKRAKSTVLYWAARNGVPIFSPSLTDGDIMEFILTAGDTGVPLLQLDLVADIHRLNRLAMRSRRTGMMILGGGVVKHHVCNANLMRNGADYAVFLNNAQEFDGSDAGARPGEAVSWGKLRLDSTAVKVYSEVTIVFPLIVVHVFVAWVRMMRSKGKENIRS

B1: FLAG-TbDHSp (T. brucei deoxyhypusine synthase prozyme (activating) subunit, N-terminally FLAG-tagged) (protein, UniProt Q4GZD1 1-342)
chain: MSGVPFPSRVIGDLDYSNLLNIGQEEAIRCVLNAYPNIGLEATNLGRARRIVQRALNDNGMDGNKVMLAYTSNLISSGLRDTFACLARENRIGAVVTTAGGVEEDVIKCLGDTLVGDFALNDHALRNNGLNRVGNLLVPNDNYRNFEDFFVPLLRRLHEQQRDSRWTTKTTPSQIIAEIGAALESVRPNDCGSSLIYWCYRNDIPVFSPAFTDGSMGDMIYFYNYSRKGLVVDPVPDVRRLRQLGCKSTNVGRITCIVLGAGLPKHHLLRNVQADAVVYVTTGSDADGCESSCNVMADRANGLLSPNCDVVRVHGDATIISPLLLLRSSDGKEKVGVREDGN
Q: For B1, which binding [1] is on record?
A: binds

B2: AU1-TbDHSc (T. brucei deoxyhypusine synthase, catalytic subunit, N-terminally AU1-tagged) (enzyme, UniProt Q38BX0 1-461)
chain: MAELAKSAVLVSSCTDDLLGDAKQVVVGPNQEDLHSAEAVLNRYSTVGFQASNLARAFSICEMMLTPQSPSPSLMPTEGDQASESPVMVQPTLFVGVTANLFGTGCREAIRFLCTECVPLPNGVEPATPLDDMAGISCDGTGALKPSPCDSRALIHVLVVSGGAMEHDIRRACESYKLSRDGAEEEGEQFHHPVERDRSRSKGTDCHFGNVRYNSSGVASRNLFSCVMRCLVKRLAEAQRKEKANREAAPIPEAYYDVCSWAITPSTLWYMAGLWMADIFTEALQETGEVTDEKVASEEGLKRAKSTVLYWAARNGVPIFSPSLTDGDIMEFILTAGDTGVPLLQLDLVADIHRLNRLAMRSRRTGMMILGGGVVKHHVCNANLMRNGADYAVFLNNAQEFDGSDAGARPGEAVSWGKLRLDSTAVKVYSEVTIVFPLIVVHVFVAWVRMMRSKGKENIRS
Q: Which binding [2] does the source give for B2 here?
A: binds

B3: TbDHSp (T. brucei deoxyhypusine synthase prozyme (activating) subunit), recombinant, untagged (natural protein, UniProt Q4GZD1 1-342, looked up)
chain: MSGVPFPSRVIGDLDYSNLLNIGQEEAIRCVLNAYPNIGLEATNLGRARRIVQRALNDNGMDGNKVMLAYTSNLISSGLRDTFACLARENRIGAVVTTAGGVEEDVIKCLGDTLVGDFALNDHALRNNGLNRVGNLLVPNDNYRNFEDFFVPLLRRLHEQQRDSRWTTKTTPSQIIAEIGAALESVRPNDCGSSLIYWCYRNDIPVFSPAFTDGSMGDMIYFYNYSRKGLVVDPVPDVRRLRQLGCKSTNVGRITCIVLGAGLPKHHLLRNVQADAVVYVTTGSDADGCESSCNVMADRANGLLSPNCDVVRVHGDATIISPLLLLRSSDGKEKVGVREDGN
notes: T. brucei deoxyhypusine synthase prozyme subunit (TbDHSp), catalytically dead paralog, TriTrypDB Tb927.1.870; open reading frame cloned untagged into the HindIII-KpnI site of pT7-FLAG-MAT-Tag-2 with a stop codon inserted; 37 kDa on SDS-PAGE; the vector's C-terminal tag was removed by insertion of a stop codon; also called tagless TbDHSp; untagged TbDHSp
Q: Which binding [3] does the source give for B3 here?
A: binds
